PubChem BioAssay AID743121, NCATS – 2013
This is one part, drawn at random, of about 26,000 reagents. 167 of all reagents (0.63%) count as active. 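Calls are per gene from RSA p-values that are not deposited; an individual active-marked siRNA can sensitise only weakly.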 Unmarked entries are inactive. The numbers tell different reagents against one gene apart.

- Purpose: 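Genes whose silencing strengthens cell killing by camptothecin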 (primary screen)
- Cells: MDA-MB-231 cells, a human breast cancer line
- Knock-down reagent: single siRNA against human genes, 20 nM siRNA (0.8 pmol per well)
- Duration: 120 h (drug added 48 h after transfection, read 72 h later)
- Challenge: camptothecin 20 nM (about EC30) for 72 h; vehicle 0.1% DMSO in parallel plates
- Detection: 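CellTiter-Glo ATP signal, scaled to control siRNA as percent viability; sensitisation given as log2 of untreated divided by camptothecin-treated viability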
- Scale: log2 vehicle/camptothecin viability: higher = stronger sensitisation to camptothecin; viability with camptothecin and viability without drug: higher = more viable cells
- Hit rule: 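Each gene scored by redundant siRNA activity (RSA) over its individual siRNA ratios; a gene is called active at p < 0.001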

no.	gene knocked down	reagent no.	log2 vehicle/camptothecin viability	viability with camptothecin (% of control)	viability without drug (% of control)
1	GLRX3 (GeneID 10539)	1	-0.2	110	95.8
2	GLRX3 (GeneID 10539)	2	-0.451	90.4	66.1
3	GLRX3 (GeneID 10539)	3	-0.718	85.9	52.2
4	CPB2 (GeneID 1361)	1	-0.643	96	61.5
5	CPB2 (GeneID 1361)	2	-0.103	98.3	91.6
6	CPB2 (GeneID 1361)	3	0.272	88.4	107
7	CPB2 (GeneID 1361)	4	-0.205	10.8	9.35
8	DAP3 (GeneID 7818)	1	-0.217	81.2	69.8
9	DAP3 (GeneID 7818)	2	-0.12	56.6	52
10	DAP3 (GeneID 7818)	3	-0.326	67.2	53.6
11	DAP3 (GeneID 7818)	4	-0.117	55.7	51.3
12	TRMT61B (GeneID 55006)	1	-0.134	84.9	77.4
13	TRMT61B (GeneID 55006)	2	-0.086	56.3	53.1
14	TRMT61B (GeneID 55006)	3	0.00651	59.5	59.8
15	TRMT61B (GeneID 55006)	4	-0.194	61.4	53.7
16	PPP1R1B (GeneID 84152)	1	-0.0264	56	55
17	PPP1R1B (GeneID 84152)	2	-0.155	85.1	76.4
18	PPP1R1B (GeneID 84152)	3	-0.0992	77.8	72.6
19	PPP1R1B (GeneID 84152)	4	0.462	30	41.3
20	HCAR3 (GeneID 8843)	1	-0.296	89.9	73.2
21	HCAR3 (GeneID 8843)	2	-0.0822	139	131
22	HCAR3 (GeneID 8843)	3	-0.0876	76.8	72.3
23	HCAR3 (GeneID 8843)	4	-0.258	100	83.8
24	CLIC6 (GeneID 54102)	1	0.0162	77.9	78.8
25	CLIC6 (GeneID 54102)	2	-0.296	24.2	19.7
26	CLIC6 (GeneID 54102)	3	-0.0707	93.1	88.7
27	CLIC6 (GeneID 54102)	4	0.262	48.3	57.9
28	SREBF2 (GeneID 6721)	1	-0.0872	64.3	60.5
29	SREBF2 (GeneID 6721)	2	-0.00662	113	112
30	SREBF2 (GeneID 6721)	3	0.0662	77.5	81.1
31	SREBF2 (GeneID 6721)	4	-0.375	117	90.6
32	CDHR1 (GeneID 92211)	1	-0.287	65.5	53.7
33	CDHR1 (GeneID 92211)	2	-0.151	40.6	36.6
34	CDHR1 (GeneID 92211)	3	-0.13	104	95
35	TMEM11 (GeneID 8834)	1	-0.124	135	124
36	TMEM11 (GeneID 8834)	2	-0.529	72.7	50.4
37	TMEM11 (GeneID 8834)	3	0.116	22.8	24.7
38	TMEM11 (GeneID 8834)	4	0.114	69.7	75.5
39	PTGR3 (GeneID 284273)	1	0.0115	90.3	91
40	PTGR3 (GeneID 284273)	2	-0.377	41.9	32.2
41	PTGR3 (GeneID 284273)	3	0.265	57.7	69.4
42	PTGR3 (GeneID 284273)	4	-0.00502	54.6	54.4
43	MOK (GeneID 5891)	1	-0.676	25.9	16.2
44	MOK (GeneID 5891)	2	-0.206	90	78
45	MOK (GeneID 5891)	3	-0.164	99.7	89
46	MOK (GeneID 5891)	4	-0.111	73.1	67.7
47	BNIP3 (GeneID 664)	1	-0.568	77.7	52.4
48	BNIP3 (GeneID 664)	2	-0.148	108	97.7
49	BNIP3 (GeneID 664)	3	0.396	24.9	32.8
50	BNIP3 (GeneID 664)	4	-0.16	45.3	40.6
51	CD96 (GeneID 10225)	1	-0.36	64.1	50
52	CD96 (GeneID 10225)	2	-0.393	124	94.2
53	CD96 (GeneID 10225)	3	-0.187	108	95
54	CD96 (GeneID 10225)	4	0.178	73.1	82.7
55	PTPN23 (GeneID 25930)	1	0.646	29.6	46.3
56	PTPN23 (GeneID 25930)	2	-0.582	67.8	45.3
57	PTPN23 (GeneID 25930)	3	-0.277	63.4	52.3
58	PTPN23 (GeneID 25930)	4	0.7	4.14	6.73
59	TUBB7P (GeneID 56604)	1	0.453	47	64.3
60	TUBB7P (GeneID 56604)	2	-0.0952	96.5	90.4
61	TUBB7P (GeneID 56604)	3	0.146	73.5	81.4
62	TUBB7P (GeneID 56604)	4	-0.49	78.1	55.6
63	MKNK1 (GeneID 8569)	1	-0.352	87.4	68.5
64	MKNK1 (GeneID 8569)	2	-0.449	94.6	69.2
65	MKNK1 (GeneID 8569)	3	-0.973	63.8	32.5
66	MKNK1 (GeneID 8569)	4	-0.303	89.6	72.6
67	GPR179 (GeneID 440435)	1	0.137	73.3	80.6
68	GPR179 (GeneID 440435)	2	0.0831	67.1	71
69	GPR179 (GeneID 440435)	3	-0.491	65	46.2
70	GPR179 (GeneID 440435)	4	0.0155	67.3	68

11 entries from above, reduced to “viability without drug (% of control)”:
PTGR3 (GeneID 284273) #3	69.4
PTGR3 (GeneID 284273) #4	54.4
MOK (GeneID 5891) #1	16.2
MOK (GeneID 5891) #2	78
MOK (GeneID 5891) #3	89
MOK (GeneID 5891) #4	67.7
BNIP3 (GeneID 664) #1	52.4
BNIP3 (GeneID 664) #2	97.7
BNIP3 (GeneID 664) #3	32.8
BNIP3 (GeneID 664) #4	40.6
CD96 (GeneID 10225) #1	50
